In publication PMC8292354, “Molecular insights into the endoperoxide formation by Fe(II)/α-KG-dependent oxygenase NvfI” (Nature Communications, 2021):
Results are given in words; binding and its absence hold for the method and conditions named.

Molecular target: NvfI from Aspergillus novofumigatus IBT 16806 (Aspergillus novofumigatus IBT 16806)
Test: SEC; gel-filtration analysis of purified NvfI; apparent molecular weight 34 kDa; both purified

B1: NvfI from Aspergillus novofumigatus IBT 16806 (enzyme, UniProt A0A2I1BSX0 1-278)
chain: MVGSRTWCESEMLFVQPDAGTKEELYYRVTPKPGQTQANFNWTPHKVRFHDARPQRDSFDLNTHGFTFVEDAISPQLIERIRADDTAAVEGDYFASVAALVKRVTGADHVVCFSPYTRKENSEKGIFGQPARTVHCDHTPAAAIELTHKLCGEDAVRLLQSRFRAFSVWRPLVEPVLDWPLAVVDGRTIAPDDLHPVHWLRYEKKDTEPPFQLSFSETQKWYYLSRQRSDEVSIVKNYDSEVVPSPRSAHCAFKHPFVPKDAPPRESIDVRCLVFGGR
With B1 the binding was “no binding”.
